Results deposited as PubChem BioAssay AID743121 (NCATS, 2013).

Purpose: 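Genes whose silencing strengthens cell killing by camptothecin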 (primary screen)
System: MDA-MB-231 cells, a human breast cancer line
Reagents: single siRNA against human genes, 20 nM siRNA (0.8 pmol per well)
Timing: 120 h (drug added 48 h after transfection, read 72 h later)
Conditions: camptothecin 20 nM (about EC30) for 72 h; vehicle 0.1% DMSO in parallel plates
Measurement: 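Cell viability by ATP luminescence (CellTiter-Glo) as % of non-targeting siRNA wells, and the log2 ratio of viability without drug over viability with camptothecin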
Scale: log2 vehicle/camptothecin viability: higher = stronger sensitisation to camptothecin; viability with camptothecin: higher = more viable cells
Units: viability with camptothecin in % of control
Hit rule: 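Each gene scored by redundant siRNA activity (RSA) over its individual siRNA ratios; a gene is called active at p < 0.001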
In all, the deposit lists about 26,000 reagents; this is a part drawn at random. 167 of them (0.63%) count as active. 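Calls are per gene from RSA p-values that are not deposited; an individual active-marked siRNA can sensitise only weakly.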 Entries without a mark were called inactive. Further read-outs or replicates are left out here.

For SACS [SID164459642], the values are log2 vehicle/camptothecin viability -0.423; viability with camptothecin 121.
Depletion of SACS [SID164459643] came out at: log2 vehicle/camptothecin viability -0.124; viability with camptothecin 88.3.
Knock-down of SACS [SID164459647] resulted in: log2 vehicle/camptothecin viability -0.0393; viability with camptothecin 89.4.
Silencing of SACS [SID164459648] came out at: log2 vehicle/camptothecin viability -0.195; viability with camptothecin 98.7.
Knock-down of CD244 [SID164475292] came out at: log2 vehicle/camptothecin viability -0.544; viability with camptothecin 14.6.
CD244 [SID164475293] scored log2 vehicle/camptothecin viability 0.32; viability with camptothecin 41.4.
After knock-down of CD244 [SID164475298], the record shows log2 vehicle/camptothecin viability -0.467; viability with camptothecin 122.
Depletion of AFF2 [SID164365242] resulted in: log2 vehicle/camptothecin viability -0.197; viability with camptothecin 69.
For AFF2 [SID164365243], the values are log2 vehicle/camptothecin viability 0.0441; viability with camptothecin 57.7.
After knock-down of AFF2 [SID164365245] the results were log2 vehicle/camptothecin viability 1.7; viability with camptothecin 16.5.
AFF2 [SID164365246] scored log2 vehicle/camptothecin viability -0.27; viability with camptothecin 41.9.
For NAGK [SID164485242] the deposit lists log2 vehicle/camptothecin viability -0.523; viability with camptothecin 61.
With knock-down of NAGK [SID164485245] the results were log2 vehicle/camptothecin viability -0.629; viability with camptothecin 78.1.
For NAGK [SID164485247], the values are log2 vehicle/camptothecin viability 0.1; viability with camptothecin 63.
For NAGK [SID164485248], the values are log2 vehicle/camptothecin viability 0.286; viability with camptothecin 43.5.

Quoted from the entries so far for reference:
AFF2 [SID164365246] → log2 vehicle/camptothecin viability: -0.27; viability with camptothecin: 41.9
NAGK [SID164485242] → log2 vehicle/camptothecin viability: -0.523; viability with camptothecin: 61

The listing continues.
With knock-down of RPS6KA2 [SID164386317], the record shows log2 vehicle/camptothecin viability -0.404; viability with camptothecin 102.
With knock-down of RPS6KA2 [SID164386318] the results were log2 vehicle/camptothecin viability 0.35; viability with camptothecin 38.8.
RPS6KA2 [SID164386319] scored log2 vehicle/camptothecin viability -0.563; viability with camptothecin 122.
For RPS6KA2 [SID164386320], the values are log2 vehicle/camptothecin viability 0.771; viability with camptothecin 24.9.
Against CD1B [SID164357005], the values are log2 vehicle/camptothecin viability -0.364; viability with camptothecin 38.3.
After knock-down of CD1B [SID164357006], the record shows log2 vehicle/camptothecin viability -0.184; viability with camptothecin 101.
Depletion of CD1B [SID164357007] resulted in: log2 vehicle/camptothecin viability -0.0521; viability with camptothecin 99.2.
Silencing of CD1B [SID164357008] came out at: log2 vehicle/camptothecin viability -0.259; viability with camptothecin 23.7.
After knock-down of GRM3 [SID164367761], the record shows log2 vehicle/camptothecin viability -0.692; viability with camptothecin 67.4.
After knock-down of GRM3 [SID164367762] the results were log2 vehicle/camptothecin viability -0.241; viability with camptothecin 84.5.
With knock-down of GRM3 [SID164367763], the screen gave log2 vehicle/camptothecin viability 0.0477; viability with camptothecin 78.9.
GRM3 [SID164367764] gave log2 vehicle/camptothecin viability -0.0859; viability with camptothecin 29.3.
